PubChem BioAssay AID1259308 – NCATS, 2017

Assay: 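Genes whose loss raises luciferase production in HEK293 cells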 (primary screen)
System: human HEK293 embryonic kidney cells stably expressing firefly luciferase (HEK-CMV-Luc2-Hygro)
Knock-down reagent: single siRNA against human genes, 0.8 pmol siRNA per well
Duration: 72 h
Read-out: 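Reporter luminescence and viable-cell signal on separate replicate plates, given as percent of non-targeting control and median/MAD z-scores, plus per-cell luciferase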
Scale: total luciferase, z-score: higher = more reporter protein produced
Active means: 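An siRNA counts as active if its total luciferase robust z-score exceeds 3; genes with two or more such siRNAs out of three were retested with fresh siRNAs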
Calls: active = raised luciferase; inactive = no rise
Here is one part, drawn at random, of about 59,000 reagents tested. About 1,510 of them (2.6%) count as active. 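Calls use total luciferase alone and ignore viability, so some active siRNAs may act by altering cell number.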 The numbers tell different reagents against one gene apart. Not all columns of the deposit are shown.

SLC35B4 #1
- total luciferase, z-score: 0.654
- outcome: inactive

SLC35B4 #2
- total luciferase, z-score: -0.542
- outcome: inactive

SLC35B4 #3
- total luciferase, z-score: -1.12
- outcome: inactive

ATP4B #1
- total luciferase, z-score: 4.95
- outcome: active

ATP4B #2
- total luciferase, z-score: 1.72
- outcome: inactive

ATP4B #3
- total luciferase, z-score: -1.46
- outcome: inactive

NSMCE2 #1
- total luciferase, z-score: 0.619
- outcome: inactive

NSMCE2 #2
- total luciferase, z-score: 1.8
- outcome: inactive

NSMCE2 #3
- total luciferase, z-score: 3.34
- outcome: active

CTAGE15 #1
- total luciferase, z-score: 0.544
- outcome: inactive

CTAGE15 #2
- total luciferase, z-score: 0.17
- outcome: inactive

CTAGE15 #3
- total luciferase, z-score: 2.16
- outcome: inactive

PYCR3 #1
- total luciferase, z-score: 0.308
- outcome: inactive

PYCR3 #2
- total luciferase, z-score: -1.75
- outcome: inactive

PYCR3 #3
- total luciferase, z-score: 1.34
- outcome: inactive

ANKH #1
- total luciferase, z-score: -1.15
- outcome: inactive

ANKH #2
- total luciferase, z-score: -1.05
- outcome: inactive

ANKH #3
- total luciferase, z-score: -0.245
- outcome: inactive

Reagents above called active (2):
ATP4B #1
- total luciferase, z-score: 4.95
- outcome: active

NSMCE2 #3
- total luciferase, z-score: 3.34
- outcome: active

The listing continues.
TNMD #1
- total luciferase, z-score: 0.2
- outcome: inactive

TNMD #2
- total luciferase, z-score: -0.451
- outcome: inactive

TNMD #3
- total luciferase, z-score: -0.00895
- outcome: inactive

KCNQ3 #1
- total luciferase, z-score: 0.662
- outcome: inactive

KCNQ3 #2
- total luciferase, z-score: 0.0348
- outcome: inactive

KCNQ3 #3
- total luciferase, z-score: 5.63
- outcome: active

ZDHHC15 #1
- total luciferase, z-score: -0.617
- outcome: inactive

ZDHHC15 #2
- total luciferase, z-score: -1.65
- outcome: inactive

ZDHHC15 #3
- total luciferase, z-score: 0.258
- outcome: inactive

PLS1 #1
- total luciferase, z-score: -0.425
- outcome: inactive

PLS1 #2
- total luciferase, z-score: 0.924
- outcome: inactive

PLS1 #3
- total luciferase, z-score: 0.874
- outcome: inactive

MAS1 #1
- total luciferase, z-score: 1.1
- outcome: inactive

MAS1 #2
- total luciferase, z-score: -0.509
- outcome: inactive

MAS1 #3
- total luciferase, z-score: 1.73
- outcome: inactive

ACTRT1 #1
- total luciferase, z-score: 0.569
- outcome: inactive

ACTRT1 #2
- total luciferase, z-score: 3.3
- outcome: active

ACTRT1 #3
- total luciferase, z-score: -0.323
- outcome: inactive

IL1RAP #1
- total luciferase, z-score: -0.5
- outcome: inactive

IL1RAP #2
- total luciferase, z-score: -0.0691
- outcome: inactive

IL1RAP #3
- total luciferase, z-score: 1.01
- outcome: inactive

TOMM22P3 #1
- total luciferase, z-score: -0.346
- outcome: inactive

TOMM22P3 #2
- total luciferase, z-score: 0.524
- outcome: inactive

TOMM22P3 #3
- total luciferase, z-score: 1.96
- outcome: inactive
